These results are taken from PMC2996883.

Results are given in words; binding and its absence hold for the method and conditions named. Binding seen in cells or lysates may run through a third protein. Some results given as binding are weak or reduced against the parent protein; the word gives no strength. For part of these data: Tags and fused reporters may be left off the sequences shown.

Experiment in all cases: co-IP; HEK 293T cells co-transfected with an HA-tagged and a His6-Myc-tagged construct; lysate in 50 mM HEPES-NaOH pH 7.4, 150 mM NaCl, 10% glycerol, solubilised with 1% Triton X-100; anti-HA (HA-7) agarose overnight at 4 °C; immunoblot with anti-HA or anti-Myc
(In general: In western blotting, separated proteins are transferred to a membrane and probed.)

For assay [1], the target named is T1, ELOVL4ΔC, C-terminally truncated ELOVL4 lacking the C-terminal 51 amino acid residues (human) (UniProt Q9GZR5).
T1 sequence: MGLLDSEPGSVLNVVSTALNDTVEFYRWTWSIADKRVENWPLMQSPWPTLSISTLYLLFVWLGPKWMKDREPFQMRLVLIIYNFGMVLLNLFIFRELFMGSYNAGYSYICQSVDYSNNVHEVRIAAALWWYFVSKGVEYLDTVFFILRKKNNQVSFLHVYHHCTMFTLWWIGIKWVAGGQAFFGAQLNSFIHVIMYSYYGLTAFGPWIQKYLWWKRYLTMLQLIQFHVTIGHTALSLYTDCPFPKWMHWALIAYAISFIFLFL

The target of assay [2] is T2, HA-ELOVL3 (human) (UniProt Q9HB03).
T2 sequence: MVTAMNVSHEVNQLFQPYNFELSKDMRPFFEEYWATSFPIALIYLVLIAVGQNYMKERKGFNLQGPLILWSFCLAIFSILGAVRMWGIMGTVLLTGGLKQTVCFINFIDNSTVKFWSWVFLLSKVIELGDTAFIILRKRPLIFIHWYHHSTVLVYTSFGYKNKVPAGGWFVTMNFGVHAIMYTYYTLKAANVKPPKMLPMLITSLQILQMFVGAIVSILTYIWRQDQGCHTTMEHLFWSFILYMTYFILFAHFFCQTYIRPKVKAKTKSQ

Assay [3] deals with T3, HA-ELOVL5 (human) (UniProt Q9NYP7).
T3 sequence: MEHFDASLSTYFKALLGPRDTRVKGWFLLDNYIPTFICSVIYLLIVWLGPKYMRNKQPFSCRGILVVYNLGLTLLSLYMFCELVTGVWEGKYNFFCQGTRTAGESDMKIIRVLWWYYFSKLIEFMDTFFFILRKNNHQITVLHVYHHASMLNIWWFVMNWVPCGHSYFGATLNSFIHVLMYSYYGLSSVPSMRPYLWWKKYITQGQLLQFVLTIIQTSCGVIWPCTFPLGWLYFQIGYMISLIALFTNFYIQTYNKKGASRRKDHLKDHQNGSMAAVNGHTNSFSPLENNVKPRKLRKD

Assay [4] deals with T4, HA-ELOVL2 (human) (UniProt Q9NXB9).
T4 sequence: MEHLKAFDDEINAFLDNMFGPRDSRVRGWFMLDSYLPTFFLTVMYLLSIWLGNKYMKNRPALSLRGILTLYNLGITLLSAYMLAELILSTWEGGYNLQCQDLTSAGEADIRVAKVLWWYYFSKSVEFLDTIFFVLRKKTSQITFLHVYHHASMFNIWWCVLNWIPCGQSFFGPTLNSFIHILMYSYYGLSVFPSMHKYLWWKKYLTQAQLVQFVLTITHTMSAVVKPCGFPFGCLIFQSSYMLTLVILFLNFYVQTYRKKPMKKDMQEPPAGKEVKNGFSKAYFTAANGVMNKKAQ

Assay [5] deals with T5, elongase of very long-chain fatty acids-like 4 (ELOVL4), wild type (human) (UniProt Q9GZR5).
T5 sequence: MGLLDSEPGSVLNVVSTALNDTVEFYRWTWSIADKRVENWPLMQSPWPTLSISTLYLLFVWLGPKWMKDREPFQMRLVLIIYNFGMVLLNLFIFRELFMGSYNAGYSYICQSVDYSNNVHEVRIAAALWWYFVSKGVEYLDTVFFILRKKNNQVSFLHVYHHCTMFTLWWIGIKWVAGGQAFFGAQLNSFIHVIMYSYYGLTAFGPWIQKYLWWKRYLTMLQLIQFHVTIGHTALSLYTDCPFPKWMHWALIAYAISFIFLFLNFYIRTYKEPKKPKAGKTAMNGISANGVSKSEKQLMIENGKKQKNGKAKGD

Assay [6] has as its target T6, HA-ELOVL1 (human) (UniProt Q9BW60).
T6 sequence: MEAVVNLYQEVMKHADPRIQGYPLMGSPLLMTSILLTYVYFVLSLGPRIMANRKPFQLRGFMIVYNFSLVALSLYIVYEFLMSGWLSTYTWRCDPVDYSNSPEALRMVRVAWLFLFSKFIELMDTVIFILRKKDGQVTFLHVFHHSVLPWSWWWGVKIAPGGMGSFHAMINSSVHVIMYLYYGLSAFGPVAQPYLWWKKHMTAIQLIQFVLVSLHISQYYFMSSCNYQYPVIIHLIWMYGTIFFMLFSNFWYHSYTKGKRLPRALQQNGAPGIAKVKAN

Assay [7] deals with T7, HA-ELOVL7 (human) (UniProt A1L3X0).
T7 sequence: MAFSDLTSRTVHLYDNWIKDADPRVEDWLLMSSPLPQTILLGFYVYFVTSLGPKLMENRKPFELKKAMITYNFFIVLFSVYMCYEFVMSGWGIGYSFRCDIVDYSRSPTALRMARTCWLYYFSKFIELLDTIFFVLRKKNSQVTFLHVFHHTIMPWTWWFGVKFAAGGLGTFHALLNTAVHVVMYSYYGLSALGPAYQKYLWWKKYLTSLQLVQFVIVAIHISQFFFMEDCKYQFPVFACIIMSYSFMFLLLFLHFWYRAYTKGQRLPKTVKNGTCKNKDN

The target in assay [8] is T8, HA-tagged 3-ketoacyl-CoA reductase (KAR) (UniProt Q53GQ0).
T8 sequence: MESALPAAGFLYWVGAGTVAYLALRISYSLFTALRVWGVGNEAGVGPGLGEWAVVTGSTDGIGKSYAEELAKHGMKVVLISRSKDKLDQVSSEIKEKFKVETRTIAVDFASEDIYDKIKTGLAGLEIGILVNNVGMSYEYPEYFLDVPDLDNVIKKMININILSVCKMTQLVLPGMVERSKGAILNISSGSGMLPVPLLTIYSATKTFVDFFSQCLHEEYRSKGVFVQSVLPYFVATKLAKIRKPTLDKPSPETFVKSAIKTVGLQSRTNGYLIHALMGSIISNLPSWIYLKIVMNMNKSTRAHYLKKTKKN

Assay [9] has as its target T9, HA-ELOVL6 (human) (UniProt Q9H5J4).
T9 sequence: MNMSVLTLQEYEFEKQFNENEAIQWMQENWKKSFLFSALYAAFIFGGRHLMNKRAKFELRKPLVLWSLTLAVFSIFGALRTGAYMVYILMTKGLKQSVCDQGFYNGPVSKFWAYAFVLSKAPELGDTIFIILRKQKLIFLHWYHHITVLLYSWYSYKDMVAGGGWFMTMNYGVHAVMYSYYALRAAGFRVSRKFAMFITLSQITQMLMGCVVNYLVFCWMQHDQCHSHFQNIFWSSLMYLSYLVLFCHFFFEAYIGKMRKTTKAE

B1: ELOVL4ΔC, C-terminally truncated ELOVL4 lacking the C-terminal 51 amino acid residues (domain or fragment, UniProt Q9GZR5 1-263)
chain: MGLLDSEPGSVLNVVSTALNDTVEFYRWTWSIADKRVENWPLMQSPWPTLSISTLYLLFVWLGPKWMKDREPFQMRLVLIIYNFGMVLLNLFIFRELFMGSYNAGYSYICQSVDYSNNVHEVRIAAALWWYFVSKGVEYLDTVFFILRKKNNQVSFLHVYHHCTMFTLWWIGIKWVAGGQAFFGAQLNSFIHVIMYSYYGLTAFGPWIQKYLWWKRYLTMLQLIQFHVTIGHTALSLYTDCPFPKWMHWALIAYAISFIFLFL
On to B1, for which the binding result in [1], in assay [2], in assay [3], in [4], in [5] and in [6] was “binds” in each case. The binding result in [7], in assay [8] and in assay [9] was “binds” in each case.

B2: elongase of very long-chain fatty acids-like 4 (ELOVL4), wild type (enzyme, UniProt Q9GZR5 1-314)
chain: MGLLDSEPGSVLNVVSTALNDTVEFYRWTWSIADKRVENWPLMQSPWPTLSISTLYLLFVWLGPKWMKDREPFQMRLVLIIYNFGMVLLNLFIFRELFMGSYNAGYSYICQSVDYSNNVHEVRIAAALWWYFVSKGVEYLDTVFFILRKKNNQVSFLHVYHHCTMFTLWWIGIKWVAGGQAFFGAQLNSFIHVIMYSYYGLTAFGPWIQKYLWWKRYLTMLQLIQFHVTIGHTALSLYTDCPFPKWMHWALIAYAISFIFLFLNFYIRTYKEPKKPKAGKTAMNGISANGVSKSEKQLMIENGKKQKNGKAKGD
B2: the binding entry in [1] is reported as “binds”; in assay [2] it was “binds weakly”; in assay [3], “binds weakly”; in assay [4] it was “binds weakly”; in assay [5], “binds weakly”; in [6], “binds weakly”. In addition, the binding result in assay [7] was “binds weakly”; in assay [8], “binds”; in assay [9], “binds weakly”.
